Assay [1] deals with 3XFLAG-OFD1 Y282S (human) (UniProt O75665). Kind of assay: co-IP; HEK293 lysates with 3XFLAG-OFD1 wild type or mutated in the eIF4E binding site (Y282S, Y282D); eIF4E detected by WB, eIF4E/OFD1 ratio quantified.
The target in assay [2] is 3XFLAG-OFD1 Y282D (human) (UniProt O75665). Described as above.

By UniProt entry, the sequences of proteins in these tests, tags left out. Where a name states a change or a piece, a line headed by the entry shows the natural chain unless it says otherwise.
UniProt O75665: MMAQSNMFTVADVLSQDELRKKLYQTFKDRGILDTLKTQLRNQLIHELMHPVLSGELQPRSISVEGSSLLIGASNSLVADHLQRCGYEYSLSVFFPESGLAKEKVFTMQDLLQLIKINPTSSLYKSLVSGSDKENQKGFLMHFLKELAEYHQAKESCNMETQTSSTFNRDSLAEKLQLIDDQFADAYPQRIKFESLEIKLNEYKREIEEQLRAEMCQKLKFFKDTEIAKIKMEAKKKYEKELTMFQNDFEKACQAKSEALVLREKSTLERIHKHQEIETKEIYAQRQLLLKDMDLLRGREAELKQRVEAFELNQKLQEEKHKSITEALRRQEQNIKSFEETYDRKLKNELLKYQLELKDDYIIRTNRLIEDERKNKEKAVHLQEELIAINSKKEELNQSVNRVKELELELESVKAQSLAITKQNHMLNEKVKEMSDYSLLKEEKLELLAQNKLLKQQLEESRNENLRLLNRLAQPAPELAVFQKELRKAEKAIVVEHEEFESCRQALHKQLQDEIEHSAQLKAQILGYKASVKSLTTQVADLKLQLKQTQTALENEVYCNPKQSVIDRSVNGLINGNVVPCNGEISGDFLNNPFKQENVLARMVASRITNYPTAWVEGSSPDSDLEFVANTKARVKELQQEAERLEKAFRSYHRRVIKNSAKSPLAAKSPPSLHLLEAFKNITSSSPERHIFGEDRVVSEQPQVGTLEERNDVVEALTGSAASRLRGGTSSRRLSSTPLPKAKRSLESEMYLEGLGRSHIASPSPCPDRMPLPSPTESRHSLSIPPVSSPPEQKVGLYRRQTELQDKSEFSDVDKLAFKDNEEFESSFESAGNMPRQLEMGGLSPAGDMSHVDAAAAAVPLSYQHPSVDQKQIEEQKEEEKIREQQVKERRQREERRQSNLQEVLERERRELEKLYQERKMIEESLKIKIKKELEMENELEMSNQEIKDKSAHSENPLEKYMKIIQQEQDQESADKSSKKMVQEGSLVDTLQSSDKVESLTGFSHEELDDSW
UniProt P06730: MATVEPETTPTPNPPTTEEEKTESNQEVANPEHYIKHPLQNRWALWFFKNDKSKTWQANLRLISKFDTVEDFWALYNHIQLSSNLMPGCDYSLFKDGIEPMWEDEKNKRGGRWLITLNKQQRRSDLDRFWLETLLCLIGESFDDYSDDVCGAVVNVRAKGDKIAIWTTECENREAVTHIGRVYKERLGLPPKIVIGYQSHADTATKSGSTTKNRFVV

Results are given in words; binding and its absence hold for the method and conditions named. Binding seen in cells or lysates may run through a third protein. Binding calls can cover weak binding; strength is not graded here.

Regarding eIF4E (from UniProt P06730 1-217), the binding entry in assay [1] and in assay [2] was “binds” throughout.

Source of the values: PMC5430665.
